Assay results published in the supplement of paper PMC6078165.

System: MDAMB468
Assay: relative JC-1 red fluorescence (viability) vs pre-drug, coculture with fibroblast (fraction); higher = more viable cancer cells
Method: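 JC-1 labelled TNBC cells cocultured 1:1 (1,500 cells each) with CellTrace Violet stained primary or stromal fibroblasts in 384-well plates in FluoroBrite medium, treated with one of 42 anticancer drugs at 0.1, 1, 10 or 100 uM. JC-1 red fluorescence (mitochondrial integrity in cancer cells only) was read by plate reader every 8 h for 72 h. Values are normalised to each well's pre-drug value. The stock of one drug was tenfold lower, so its dose labels may be too high.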

CCC1=C[C@@H]2CN(C1)Cc1c([nH]c3ccccc13)[C@@](C(=O)OC)(c1cc3c(cc1OC)N(C)[C@H]1[C@@](O)(C(=O)OC)[C@H](OC(C)=O)[C@]4(CC)C=CCN5CC[C@]31[C@@H]54)C2 [Vinorelbine]
relative JC-1 red fluorescence
Details	8 h	16 h	24 h	32 h	40 h	48 h	56 h	64 h	72 h
0.1 µM, coculture fibroblast: C12385	0.8885	0.7975	0.804	0.77	0.7427	0.7421	0.7162	0.702	0.715
0.1 µM, coculture fibroblast: H6013	0.902	0.8674	0.851	0.8566	0.844	0.8726	0.8537	0.858	0.814
0.1 µM, coculture fibroblast: H6019	0.859	0.846	0.844	0.839	0.826	0.837	0.813	0.814	0.812
0.1 µM, coculture fibroblast: H6076	0.975	0.954	0.942	0.944	0.866	0.856	0.8171	0.8015	0.858
0.1 µM, coculture fibroblast: H6231	0.85	0.9756	0.918	0.848	0.779	0.757	0.712	0.692	0.681
0.1 µM, coculture fibroblast: HADF	0.9271	0.859	0.823	0.812	0.757	0.743	0.709	0.696	0.647
0.1 µM, coculture fibroblast: HCFa	0.893	0.865	0.829	0.812	0.77	0.764	0.72	0.685	0.628
0.1 µM, coculture fibroblast: HCPF	0.916	0.871	0.9172	0.912	0.823	0.784	0.728	0.706	0.679
0.1 µM, coculture fibroblast: HHSteC	0.941	0.901	0.872	0.862	0.823	0.83	0.7484	0.7312	0.672
0.1 µM, coculture fibroblast: HMF	0.878	0.963	0.93	0.914	0.842	0.815	0.756	0.7301	0.707
0.1 µM, coculture fibroblast: HPFa	0.9231	0.899	0.8445	0.7931	0.7444	0.7284	0.6702	0.649	0.587
0.1 µM, coculture fibroblast: HUF	0.934	0.842	0.789	0.735	0.694	0.673	0.63909	0.6241	0.604
0.1 µM, coculture fibroblast: Hs5	0.809	0.975	0.958	0.948	0.874	0.85	0.813	0.78	0.811
0.1 µM, coculture fibroblast: Hs27A	0.919	0.873	0.858	0.856	0.804	0.788	0.763	0.752	0.707
0.1 µM, coculture fibroblast: Hs343T	0.913	0.9197	0.93	0.894	0.814	0.796	0.747	0.728	0.712
0.1 µM, coculture fibroblast: WS1	0.876	0.7788	0.755	0.7071	0.6707	0.638	0.6166	0.5912	0.586
1 µM, coculture fibroblast: C12385	0.902	0.8723	0.831	0.788	0.748	0.736	0.693	0.669	0.661
1 µM, coculture fibroblast: H6013	0.899	0.916	0.8886	0.8821	0.8643	0.8686	0.837	0.8313	0.782
1 µM, coculture fibroblast: H6019	0.851	0.849	0.848	0.816	0.808	0.804	0.771	0.753	0.744
1 µM, coculture fibroblast: H6076	0.919	0.9687	0.93	0.9467	0.8667	0.8503	0.8074	0.7792	0.818
1 µM, coculture fibroblast: H6231	0.85001	0.964	0.866	0.845	0.79	0.77	0.724	0.695	0.678
1 µM, coculture fibroblast: HADF	0.951	0.948	0.922	0.925	0.891	0.893	0.854	0.842	0.795
1 µM, coculture fibroblast: HCFa	0.8831	0.911	0.869	0.852	0.812	0.808	0.758	0.726	0.668
1 µM, coculture fibroblast: HCPF	0.886	0.9188	0.874	0.89	0.814	0.789	0.733	0.711	0.701
1 µM, coculture fibroblast: HHSteC	0.9441	0.924	0.906	0.88	0.844	0.839	0.766	0.736	0.682
1 µM, coculture fibroblast: HMF	0.854	0.846	0.9435	0.9244	0.866	0.857	0.796	0.771	0.75
1 µM, coculture fibroblast: HPFa	0.9575	0.949	0.909	0.864	0.8525	0.8444	0.7969	0.779	0.696
1 µM, coculture fibroblast: HUF	0.947	0.877	0.838	0.764	0.725	0.697	0.655	0.626	0.604
1 µM, coculture fibroblast: Hs5	0.734	0.931	0.948	0.967	0.896	0.863	0.823	0.783	0.795
1 µM, coculture fibroblast: Hs27A	0.9382	0.922	0.9036	0.9103	0.87377	0.8726	0.8401	0.8174	0.7716
1 µM, coculture fibroblast: Hs343T	0.8886	0.9787	0.953	0.949	0.877	0.861	0.818	0.798	0.781
1 µM, coculture fibroblast: WS1	0.8928	0.8223	0.815	0.773	0.735	0.707	0.69	0.667	0.65

Values are relative to the signal before dosing, not to a vehicle control; the signal also falls without drug.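 Labels refer to human fibroblasts, largely primary: uterine (C12385, HUF), lung (H6013), bone (Hs27A), adrenal (HADF), skin (WS1), plus mammary HMF and breast cancer-associated Hs343T. Cancer lines are basal-like or mesenchymal-like triple-negative breast cancer. The paper counts as hits responses shifting over 3x the replicate standard deviation. The tissue of the other fibroblasts is not given here.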
